According to PubChem BioAssay AID504594 (Broad Institute, 2011):
“And” between values parts separate entries of the source, which are not always exact repeats. Identical values can stand only once. Out of some 2,000 compounds screened, fewer than 10 were called active.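 How the source made its calls: active means growth inhibition of at least 75% in every replicate, which also brings the mean inhibition to 75% or more; inconclusive means mean inhibition 75% or more but some replicate under 75%; inactive means the rest.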 Some of the results follow.

Assay: growth inhibition of PfHsp90-dependent yeast, primary screen, antimalarial PfHsp90 inhibitor project, S. cerevisiae, BacTiter-Glo luminescence (AID 504594);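 further: 0% = DMSO neutral control wells and 100% = 20 µM radicicol control wells; higher value means stronger growth inhibition because the sign is flipped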
Conditions: S. cerevisiae expressing PfHsp90, BacTiter-Glo growth, 48 h; at 9.4 µM; active compounds read high

Growth inhibition, inactive:
CC(=O)Oc1ccc(C2OC(=O)c3ccccc3N2C(C)=O)cc1 (stereo not drawn) -6.47%, COc1ccc(OC)c(-n2c(Cn3c(-c4ccccn4)nc4ccccc43)n[nH]c2=S)c1 -11.3%, CC(C)(C)OC(=O)NCCC(=O)Oc1ccc2ccc(=O)oc2c1 7%, CCc1cc2c(=O)c(-c3nc4ccccc4n3C)coc2c(CN2CCN(C)CC2)c1O 0.821%, CC(=O)N1CC23C=CC(CC2CC12CCCCCC2)O3 (stereo not drawn) -6.53%, O=C(O)C1[C@H]2C(=O)N(C3CCCC3)C[C@]23C=C[C@H]1O3 (stereo partly drawn) -15.6%, O=c1c2ccccc2nnn1Cc1cccc2ccccc12 -17.5%, C#CCN(C)Cc1ccccc1 -0.947%, O=C(O)c1ccccc1OCCOc1ccccc1 3.6%, CCn1cc(C(=O)O)c(=O)c2ccc(C)nc21 -1.72%, COc1ccc2cc(CCC(C)=O)ccc2c1 -10.2%, CC(=O)N(CCC(Cc1ccccc1)c1ccc2c(c1)OCO2)Cc1ccc(Cl)cc1 (stereo not drawn) -1.84%, CN/C(=C/[N+](=O)[O-])NCCSCc1ccc(CN(C)C)o1 11.7%, O=C(CCCN1CC=C(n2c(=O)[nH]c3ccccc32)CC1)c1ccc(F)cc1 -3.01%, COc1cc2oc(-c3ccc(O)cc3)cc(=O)c2c(OC)c1O 9.38%, COc1ccc2oc(=O)c(C(=O)Nc3ccccc3-c3ccccc3)cc2c1 -9.43%, CCN(CC)CCNC(=O)c1cc(S(C)(=O)=O)ccc1OC 4.59%, C=CCn1c(SCC(=O)NC2CCCCC2)nc2ccccc2c1=O -4.58%, CC(=O)Nc1ccc2[nH]c(C)c(CC=C(Cl)Cl)c(=O)c2c1 12.6%, O=C(O)c1ccccc1C(=O)OCCCCOC(=O)c1ccccc1C(=O)O -3.9%, CC(=O)OCC#CCSc1nc2ccccc2n1C -21.1%, CCCC(=O)O[C@]1(C(=O)COC(C)=O)CC[C@H]2[C@@H]3C[C@H](F)C4=CC(=O)C=C[C@]4(C)[C@@]3(F)[C@@H](O)C[C@@]21C 6.83%, Cn1nnnc1SCC1=C(C(=O)O)N2C(=O)[C@@H](NC(=O)[C@H](O)c3ccccc3)[C@H]2SC1 -10.3%, O=C(NNC(=O)c1cccs1)c1ccco1 5.33%, OCCN1CCN(CCCN2c3ccccc3Sc3ccc(Cl)cc32)CC1 6.93%, COC(=O)C1=C(C)N(C)C(=S)NC1c1ccc(Cl)cc1 (stereo not drawn) -13.4%, CCn1c(O)c(/C=C2\C=Nc3ccccc32)sc1=O 3.64%, Nc1ccc(S(=O)(=O)c2ccc(N)cc2)cc1 0.466%, O=C(c1cccnc1)N1N=C(C2CC2)CC1(O)C(F)(F)F (stereo not drawn) -6.11%, COC(=O)c1ccc(C(=O)OC)c(NC(=O)C(C)C)c1 3.81%, COCc1cc(=O)[nH]c(Nc2nc3ccccc3o2)n1 -0.942%, CC1CCCc2sc3ncn(N)c(=N)c3c21 (stereo not drawn) 6.48%, O=c1oc2c(CN3CCCCC3)c(O)ccc2c2c1CCCCC2 6.09%, CC(=O)[C@@H]1[C@@H](C(=O)c2ccc(C)cc2)[C@]2(C(=O)Nc3ccccc32)[C@H]2C=Cc3cc(F)ccc3N12 12.2%, COc1ccc2c(c1O)Cc1ccccc1C2=O -1.56%, CC(C)Cc1cc(C(=O)N2CCC(N3CCC(C(=O)N4CCCC4)CC3)CC2)n[nH]1 8.38%, Nc1nc(SCc2ccc([N+](=O)[O-])cc2)c2ncn(C3OC(CO)C(O)C3O)c2n1 (stereo not drawn) -10.3%, CCOc1ccc2nc(NC(=O)NC3CCCCC3)sc2c1 16.2%, O=C(N1CCCCC1)C1(c2ccccc2)CCOCC1 2.93%, Cc1ccc(CN2CCN(Cc3cn[nH]c3C3CCCCC3)CC2CCO)cc1 (stereo not drawn) -25.7%, CCCC(=O)Nc1ncnc2c1ncn2[C@@H]1O[C@@H]2COP(=O)(O)O[C@H]2[C@H]1OC(=O)CCC -16.2%, CCc1cccc(OC2OC(CO)C(O)C(O)C2NC(C)=O)c1 (stereo not drawn) -0.333%, CCCc1c(OCCCCc2nn[nH]n2)ccc(C(C)=O)c1O 6.27%, C=CCc1cccc2cc(C(=O)Nc3ccc(CC(=O)O)cc3)c(=O)oc12 -7.68%, COc1cc(CNc2nnnn2C)ccc1OCc1ccc(F)cc1Cl 10.4%, CCc1cc2c(C)cc(=O)oc2cc1OC(=O)C1CCCN1C(=O)OC(C)(C)C (stereo not drawn) 5.63%, O=C(COc1ccc2c(-c3ccccc3)cc(=O)oc2c1)NCc1cccs1 6.98%, O=c1cc(-c2ccccc2)oc2cc(OCc3ccccc3)cc(O)c12 2.87%, C/C(=N\N=C1\NC(=O)C(CC(=O)Nc2ccc(Cl)cc2)S1)c1ccco1 (stereo not drawn) 28%, CC(C)OC(=O)CC12CN3CN(C1)CC(CC(=O)OC(C)C)(C3)C2=O 0.344%, CC1(C)CC(C(CC(=O)O)c2ccccc2)CCO1 (stereo not drawn) -0.107%, Cc1ccc(P(=O)(CSC(=N)N)c2ccc(C)cc2)cc1 -1.66%, O=C(c1cc2cc(Br)ccc2o1)N1CCCC1 -17.3%, CC(=O)[C@H]1CC[C@H]2[C@@H]3CCC4=CC(=O)CC[C@]4(C)[C@H]3[C@H](O)C[C@]12C 3.27%, Cn1cc(/C=C/C(=O)c2ccccc2)c2ccccc21 -12.4%, COc1ccc(-c2c3c(=O)n(C)c(=O)n(C)c3cn2C2CCCCC2)cc1 0.551%, COc1cccc2cc(-c3ccccc3)c(=O)oc12 -6.93%, COc1cc2nc(N3CCN(C(=O)C4CCCO4)CC3)nc(N)c2cc1OC (stereo not drawn) 3.89% and -4.06%, C[C@H]1C[C@H]2[C@@H]3CCC4=CC(=O)C=C[C@]4(C)[C@@]3(Cl)[C@@H](O)C[C@]2(C)[C@@]1(O)C(=O)CO 12%, NC(N)=N/N=C/c1c(Cl)cccc1Cl 2.34%, NS(=O)(=O)c1cc2c(cc1Cl)NCNS2(=O)=O 9.9%, CC(C)Cn1c(=S)[nH]c2cc(C(=O)O)ccc2c1=O 11.9%, O=c1[nH]c(=O)n([C@H]2C[C@H](O)[C@@H](CO)O2)cc1F 4.05%, O=C(N1CCCC1)C12CC3CC(C1)CC(C(=O)N1CCCC1)(C3)C2 -11.5%, COC1=CC(=O)CC(C)C12Oc1c(Cl)c(OC)cc(OC)c1C2=O (stereo not drawn) -0.902%, CS(=O)(=O)Nc1cccc(C(=O)CC2(O)C(=O)Nc3ccc(Br)cc32)c1 (stereo not drawn) -27.8%, O=C(/C=C/c1c[nH]c2ccccc12)c1cccc2ccccc12 5.41%, CC(=O)Oc1cc(C(C)C)c(OCCN(C)C)cc1C 2.3%, CCc1cc(=O)oc2cc(OCc3nn[nH]n3)ccc12 -13.7%, CSc1ccc(/C=N/N2CCN(Cc3ccc(C)cc3C)CC2)cc1 0.745%, C[C@H](NC(=O)Nc1ccccc1F)C(=O)O -6.88%, COc1ccc2cc[nH]c2c1 -4.91%, C[N+]12CCC(CC1)C(OC(=O)C(O)(c1ccccc1)c1ccccc1)C2 (stereo not drawn) 4.17%, CC(=O)N1CCn2c3c(c4cc(C)ccc42)CCCC31 (stereo not drawn) -11.1%, COc1ccc2c(c1OC)C(C1c3c(cc4c(c3OC)OCO4)CCN1C)OC2=O (stereo not drawn) 1.28%, COC(=O)c1[nH]c2ccc(F)cc2c1NC(=O)C1=COCCO1 -3.7%, O=C(NCCO)c1ccc2[nH]c3ccccc3c2c1 -6.45%, COc1ccc(CN2CCCC(C(=O)c3ccc(Cl)cc3)C2)cc1Cn1cccn1 (stereo not drawn) 0.31%, CCOc1ccc(CC2c3cc(OCC)c(OCC)cc3CCN2C(=O)CN2CCN(C)CC2)cc1OCC (stereo not drawn) 0.543%, COc1cc(C)nc(-n2nc(C)cc2OC)n1 8.93%, CS(=O)(=O)Nc1ccc([N+](=O)[O-])cc1Oc1ccccc1 -3.05%, CC(=O)[C@@]1(O)CC[C@H]2[C@@H]3CCC4=CC(=O)CC[C@]4(C)[C@H]3[C@@H](O)C[C@@]21C -3.14%, Cc1coc2cc3oc(=O)c(CCC(=O)O)c(C)c3cc12 1.18%, CNCCC=C1c2ccccc2CCc2ccccc21 -5.7%, CC[C@]1(O)CC2CN(CCc3c([nH]c4ccccc34)[C@@](C(=O)OC)(c3cc4c(cc3OC)N(C=O)[C@H]3[C@@](O)(C(=O)OC)[C@H](OC(C)=O)[C@]5(CC)C=CCN6CC[C@]43[C@@H]65)C2)C1 (stereo partly drawn) -4.95%, O=C1C(Cc2ccccc2)NC(=S)N1c1ccccc1 (stereo not drawn) -12.5%, O=C(c1ccccc1F)c1cc2c(cc1[N+](=O)[O-])OCCO2 0.827%, Cc1ccc(S(=O)(=O)NC(=O)Nc2cc(C)ccc2F)cc1 5.31%, O=C1OC(c2ccccc2)=C/C1=C/c1cccs1 -2.08%, Cc1ccc(/C(=C\CN2CCCC2)c2ccccn2)cc1 -5.69%, CCOc1ccc(NC2OC(C)C(O)C(O)C2O)c([N+](=O)[O-])c1 (stereo not drawn) -13.5%, CC1(C)CC(O)(CNCc2ccc3c(c2)OCO3)CCO1 (stereo not drawn) 3.89%, O=C(O)CCCN1C(=O)NC2NC(=O)NC21 (stereo not drawn) -0.193%
